# Results reported in PubChem BioAssay AID504834 (National Center for Advancing Translational Sciences (NCATS), 2011).
# The campaign covered roughly 320,000 compounds. About 22,000 (6.9%) were called active. The shares of active, inactive and inconclusive entries below differ from those in the screen. Calls come from the whole dose curve; as a rule, active = well fitted inhibition curve with a large enough effect; inconclusive = small, poorly fitted or top-dose-only effect, or another doubt; inactive = no such curve, though single readings can be large or run the other way. Potencies of inconclusive entries are doubtful fits and often do not repeat.
# Assay: Primary qHTS for delayed death inhibitors of the malarial parasite plastid, 96 hour incubation
# Conditions: P. falciparum luciferase reporter growth; series mostly up to 28.7 µM
# Method in brief: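 Delayed-death screen, second-generation endpoint: infected erythrocytes, 2% hematocrit, 0.05% parasitemia final; 96 hours at 37 C, 5% CO2; luciferase detection reagent; luminescence decrease equals reduced growth.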
# % is set by controls: 0 for no effect and ±100 for the full control effect; potency is the fitted concentration of half-maximal effect.
SMILES,Potency,"activity change, negative = inhibition"
O=C1CCC([N+](=O)[O-])C(c2ccccc2C(F)(F)F)N1 (stereo not drawn),"inconclusive: 11.7 µM [inhibitor, single point]",–
CC1CC(C)CN(C(=O)Nc2ccc(Br)cc2)C1 (stereo not drawn),"inconclusive: 18.5 µM [inhibitor, single point]",–
Oc1ccccc1C(=S)N1CCCCC1,"inconclusive: 18.5 µM [inhibitor, single point]",–
CCc1noc(C)c1C(=O)Nc1nc(-c2cccs2)cs1,inactive,–
O=C1COc2cc(S(=O)(=O)NCc3ccco3)c(Cl)cc2N1,inactive,–
CCC(NC(=O)c1cc(COc2cncc(Cl)c2)on1)c1ccncc1 (stereo not drawn),"inconclusive: 10.4 µM [inhibitor, single point]",–
O=C(NCCCn1ccnc1)c1ccc2ccccc2c1,active: 11.7 µM,–
NC(=O)c1ccccc1NC(=O)Nc1cccc(Cl)c1Cl,inactive,–
COc1ccc(NC(=O)c2cc3c(=O)n4ccccc4nc3n2C)c(OC)c1,"inconclusive: 11.7 µM [inhibitor, single point]",–
OC(COCCC12CC3CC(CC(C3)C1)C2)CN1CCCCC1 (stereo not drawn),"inconclusive: 18.5 µM [inhibitor, single point]",–
Cc1ccc(NC(=O)CSCC(=O)Nc2ncc3c(n2)CC(c2ccco2)CC3=O)cc1 (stereo not drawn),"inconclusive: 2.94 µM [inhibitor, single point]",–
CCOCCCNC(=O)c1cn(C)c(=O)c2cc(OC)c(OC)cc12,"inconclusive: 18.5 µM [inhibitor, single point]",–
COc1ccc2c(c1)c1nc3ccccc3nc1n2Cc1ccc(OC)c(OC)c1,"inconclusive: 3.29 µM [inhibitor, full curve, poor fit]",–
O=C(Nc1ccc2c(c1)OCO2)C1CCN(C(=O)c2ccc(Br)cc2)CC1,"inconclusive: 0.185 µM [inhibitor, full curve, poor fit]",–
C[C@]12CCC(=O)C=C1CC[C@@H]1[C@@H]2CC[C@@]2(C)[C@H]1CC[C@@]21CCC(=O)O1,"inconclusive: 10.4 µM [inhibitor, single point]",–
CCOc1ccc(C(=O)CCC(=O)N(CC)CC(=O)NCc2ccc(Cl)cc2)cc1,"inconclusive: 10.4 µM [inhibitor, partial curve, poor fit]",–
O=C(c1cccs1)N1CCCc2ccccc21,inactive,–
CCOc1ccccc1NC(=O)Cn1nnc(C(=O)Nc2ccc(C)cc2)c1N,"inconclusive: 14.7 µM [inhibitor, partial curve]",–
CC(C)CCn1c(Oc2ccccc2Cl)nc2c1c(=O)n(C)c(=O)n2C,"inconclusive: 18.5 µM [inhibitor, single point]",–
CCN(CC)S(=O)(=O)c1ccc(N2CCOCC2)c(NS(=O)(=O)c2ccc(C(C)C)cc2)c1,active: 1.47 µM,–
O=C1S/C(=C\c2ccc(N3CCOCC3)o2)C(=O)N1c1ccccc1,inactive,–
CCS(=O)(=O)c1nc(S(=O)(=O)c2ccc(Cl)cc2)c(NCCCN2CCOCC2)s1,active: 11.7 µM,–
CCc1ccc(NC(=O)NC2CCCCCCC2)cc1,"inconclusive: 18.5 µM [inhibitor, single point]",–

# 12 compounds from above, ordered by SMILES length, descending:
SMILES,Potency,"activity change, negative = inhibition"
CCN(CC)S(=O)(=O)c1ccc(N2CCOCC2)c(NS(=O)(=O)c2ccc(C(C)C)cc2)c1,active: 1.47 µM,–
CCS(=O)(=O)c1nc(S(=O)(=O)c2ccc(Cl)cc2)c(NCCCN2CCOCC2)s1,active: 11.7 µM,–
COc1ccc(NC(=O)c2cc3c(=O)n4ccccc4nc3n2C)c(OC)c1,"inconclusive: 11.7 µM [inhibitor, single point]",–
CCOc1ccccc1NC(=O)Cn1nnc(C(=O)Nc2ccc(C)cc2)c1N,"inconclusive: 14.7 µM [inhibitor, partial curve]",–
O=C1S/C(=C\c2ccc(N3CCOCC3)o2)C(=O)N1c1ccccc1,inactive,–
CCC(NC(=O)c1cc(COc2cncc(Cl)c2)on1)c1ccncc1 (stereo not drawn),"inconclusive: 10.4 µM [inhibitor, single point]",–
OC(COCCC12CC3CC(CC(C3)C1)C2)CN1CCCCC1 (stereo not drawn),"inconclusive: 18.5 µM [inhibitor, single point]",–
NC(=O)c1ccccc1NC(=O)Nc1cccc(Cl)c1Cl,inactive,–
O=C(NCCCn1ccnc1)c1ccc2ccccc2c1,active: 11.7 µM,–
CCc1ccc(NC(=O)NC2CCCCCCC2)cc1,"inconclusive: 18.5 µM [inhibitor, single point]",–
O=C(c1cccs1)N1CCCc2ccccc21,inactive,–
Oc1ccccc1C(=S)N1CCCCC1,"inconclusive: 18.5 µM [inhibitor, single point]",–

# Following part.

SMILES,Potency,"activity change, negative = inhibition"
NC(=O)C(c1ccc(Cl)cc1)c1ccc(Sc2ccccc2)nn1 (stereo not drawn),"inconclusive: 9.28 µM [inhibitor, single point]",–
Cc1ccc(S(=O)(=O)Cn2nnnc2C(c2ccccc2)N2CCN(c3ccccc3)CC2)cc1 (stereo not drawn),"inconclusive: 18.5 µM [inhibitor, single point]",–
O=c1oc2ccccc2n1CSC1=NCCS1,inactive,–
CC1CC(C)(C)NC(=S)N1CCCC(=O)N1CCN(c2ccccc2F)CC1 (stereo not drawn),"inconclusive: 18.5 µM [inhibitor, single point]",–
Cc1ccc(OCCSc2nc(NC(C)C)nc(NC(C)C)n2)cc1,"inconclusive: 13.1 µM [inhibitor, single point]",–
O=C(Nc1ccc(S(=O)(=O)N2CCc3ccccc32)cc1)c1ccc2c(c1)OCO2,"inconclusive: 18.5 µM [inhibitor, single point]",–
COc1ccc(NC(=O)CSc2nc(NS(=O)(=O)c3ccc(C)cc3)cc(=O)[nH]2)cc1,"inconclusive: 2.33 µM [inhibitor, full curve, poor fit]",–
CCOC(=O)Cc1csc(NC(=O)c2c(-c3c(Cl)cccc3Cl)noc2C)n1,"inconclusive: 0.0657 µM [inhibitor, full curve, poor fit]",–
CCN(CC)S(=O)(=O)c1ccc(N2CCN(c3ccccc3OC)CC2)c(N)c1,"inconclusive: 4.15 µM [inhibitor, partial curve]",–
O=C(Nc1ccc(-n2ccc(C(F)(F)F)n2)cc1)Nc1cccc(Cl)c1,"inconclusive: 1.47 µM [inhibitor, partial curve, poor fit]",–
O=C(NCCNCC(O)COc1ccc(O)cc1)N1CCOCC1 (stereo not drawn),active: 6.75 µM,–
CC(=O)NC1CSCC1OC(C)=O (stereo not drawn),active: 9.28 µM,–
COc1ccc(CNC(=O)/C(C#N)=C/c2cccc(OC)c2OC)cc1,"inconclusive: 2.94 µM [inhibitor, full curve, poor fit]",–
O=C(O)CCCC(=O)Nc1cccc([N+](=O)[O-])c1,inactive,–
CCN(CC)C(=O)c1ccc(-c2nnc(Nc3ccc(C(=O)NC)cc3)c3ccccc23)cc1,"inconclusive: 11.7 µM [inhibitor, single point]",–
COc1ccc(OC)c(S(=O)(=O)NC2CC(=O)N(c3ccc(C)c(C)c3)C2)c1 (stereo not drawn),"inconclusive: 0.738 µM [inhibitor, full curve, poor fit]",–
CS(=O)(=O)N1CCc2cc(C(=O)Nc3ccc(Cl)cc3)ccc21,inactive,–
Cc1cc(CN(C)C(=O)c2ccc3nc(Cc4ccccc4F)oc3c2)on1,"inconclusive: 18.5 µM [inhibitor, single point]",–
O=C(Cn1cc(C(F)(F)F)cc(Cl)c1=O)Nc1cc(Cl)cc(Cl)c1,–,inactive: 42.9% [at 5.75 µM]
CN(/N=C/c1cc([N+](=O)[O-])ccc1O)c1ccccc1,"inconclusive: 11.7 µM [inhibitor, single point]",–
CC(=O)C(=Cc1ccc(O)cc1)C(C)=O,"inconclusive: 0.262 µM [inhibitor, full curve, poor fit]",–
COc1ccc(-c2cc(C)no2)cc1S(=O)(=O)N1CCOc2ccccc21,inactive,–
CC(=O)N1CCN(C(=S)NC(=O)c2c(-c3ccccc3Cl)noc2C)CC1,"inconclusive: 2.94 µM [inhibitor, partial curve]",–

SMILES,Potency,"activity change, negative = inhibition"
Cc1cccc(C(=O)NCCCNC(=O)c2ccc(C)nc2)c1,"inconclusive: 3.7 µM [inhibitor, partial curve, poor fit]",–
N#Cc1c(N)n(CCNC(=O)c2ccccc2)c2nc3ccccc3nc12,"inconclusive: 14.7 µM [inhibitor, single point]",–
CCCn1c(NCc2cc(C)ccc2O)nc2ccccc21,"inconclusive: 0.586 µM [inhibitor, full curve, poor fit]",–
Cc1cc(OC(C)C(=O)NCCc2c[nH]c3ccccc23)c2c(C)cc(=O)oc2c1 (stereo not drawn),active: 1.65 µM,–
N#CC(=C=[N-])c1nc2ccccc2nc1-[n+]1ccccc1,"inconclusive: 1.47 µM [inhibitor, single point]",–
COC(=O)c1sc(N)c(C(=O)OC)c1COC(=O)CNS(=O)(=O)c1cccc(C#N)c1,"inconclusive: 18.5 µM [inhibitor, single point]",–
O=C(Nc1cccc(S(=O)(=O)N2CCCC2)c1)c1ccc2ccccc2n1,"inconclusive: 10.4 µM [inhibitor, single point]",–
CCCNC(=O)c1ccc(N2CCC3(CC2)CC(c2cccc(Br)c2)=NO3)c(NC(=O)c2ccc(Br)cc2)c1,"inconclusive: 9.28 µM [inhibitor, single point]",–
Cc1ccc(C(=O)NCc2ccc3c(c2)OCO3)cc1,"inconclusive: 10.4 µM [inhibitor, single point]",–
COc1ccc(OCC#CCN2CCC(C)CC2)cc1,"inconclusive: 13.1 µM [inhibitor, single point]",–
COc1ccc(S(=O)(=O)NC(C(=O)NCCc2ccccn2)C(C)C)cc1 (stereo not drawn),inactive,–
O=C(NNC(=O)c1cccnc1)NC12CC3CC(CC(C3)C1)C2,"inconclusive: 13.1 µM [inhibitor, partial curve, poor fit]",–
NC(Cc1cc(O)c(O)cc1O)C(=O)O (stereo not drawn),inactive,–
O=C1CC[C@@H](CN(Cc2ccccc2)Cc2cn[nH]c2-c2cc3ccccc3o2)N1,active: 14.7 µM,–
COC(=O)c1cc(S(=O)(=O)NCc2cccc(Br)c2)c[nH]1,active: 9.28 µM,–
O=C(/C=C/c1ccc(Cl)cc1)N(Cc1ccccc1)C1CCS(=O)(=O)C1 (stereo not drawn),"inconclusive: 1.85 µM [inhibitor, partial curve]",–
O=C(C1=C(O)C(=O)N(CCN2CCOCC2)C1c1ccc([N+](=O)[O-])cc1)c1cc2ccccc2o1 (stereo not drawn),"inconclusive: 18.5 µM [inhibitor, single point]",–
CN(C)C(=O)N1CCC(C(=O)N2CCCC(C(=O)c3cccc4ccccc34)C2)CC1 (stereo not drawn),"inconclusive: 14.7 µM [inhibitor, single point]",–
CC(C)c1nn2c(=O)cc(O)nc2s1,"inconclusive: 14.7 µM [inhibitor, single point]",–
O=C(O)c1[nH]c2ccccc2c1C(c1ccccc1)c1c(C(=O)O)[nH]c2ccccc12,"inconclusive: 10.4 µM [inhibitor, single point]",–
Cc1cc2ccccc2c(=O)n1CC(=O)NCC(=O)N1CCCC1,active: 11.7 µM,–
COc1ccc(C2NC(=S)NC(C)=C2C(=O)N2CCOCC2)cc1 (stereo not drawn),inactive,–

# Look-ups from the entries so far.
# Potency with NC(Cc1cc(O)c(O)cc1O)C(=O)O (stereo not drawn) is entered as inactive
# Potency with Oc1ccccc1C(=S)N1CCCCC1 is entered as inconclusive: 18.5 µM [inhibitor, single point]
